Data as given in PubChem BioAssay AID328 (DTP/NCI, 2004).
The list is a part of this screen's results and no random one: it gathers some chemical classes. Other doses and runs of a compound may be missing. T/C: endpoint of the treated group in % of that of the vehicle group. For survival time, the PubChem record calls one and a half times the control and up active, and a quarter to a half above the control has no call in these data; cut-offs in other NCI protocols can differ. Some T/C values are marked as having no survivor count here; that says nothing about deaths at the dose. Schedule codes are those of the source, read here as Q, the interval in days (D) or hours (H), X, the number of doses. Some doses were run more than once; their values stand side by side, smallest first.

Tested on: BDF1 mice, P388 leukemia ip, median survival T/C
Experiment: NCI In Vivo Anticancer Drug Screen. Data for tumor model P388 Leukemia (intraperitoneal) in B6D2F1 (BDF1) mice
Details: T/C endpoint: median survival time, higher T/C = longer survival
Procedure: The antitumor activity of compounds was measured in mice bearing transplantable tumors. Survival or tumor size were measured and the results are expressed as the measurement made in the treated group (T) divided by the measurement made in the vehicle treated control group (C). The tumor model used in this assay is P388 Leukemia (intraperitoneal) in B6D2F1 (BDF1) mice

[1] = dose: 6.25 mg/kg/injection, schedule: Q01DX009 (ip), vehicle: Klucel (hydroxypropylcellulose) (HPC)

Q: CC1(C)NC(=O)N(CCN(CCCl)CCCl)C1=O was tested. Which T/C (dose: 0.04 mg/kg/injection, schedule: Q01DX009 (ip), vehicle: Klucel (hydroxypropylcellulose) (HPC)) did it give?
A: Its T/C is 102 % of control [survivor count not shown].

Q: What about the T/C (dose: 0.09 mg/kg/injection, schedule: Q01DX009 (ip), vehicle: Klucel (hydroxypropylcellulose) (HPC)) of the same compound?
A: Its T/C is 109 % of control [survivor count not shown].

Q: And the T/C (dose: 0.19 mg/kg/injection, schedule: Q01DX009 (ip), vehicle: Klucel (hydroxypropylcellulose) (HPC))?
A: Its T/C is 112 % of control [survivor count not shown].

Q: What about the T/C (dose: 0.37 mg/kg/injection, schedule: Q01DX009 (ip), vehicle: Klucel (hydroxypropylcellulose) (HPC)) of the same compound?
A: The T/C was 93 % of control [survivor count not shown].

Q: What about the T/C (dose: 0.75 mg/kg/injection, schedule: Q01DX009 (ip), vehicle: Klucel (hydroxypropylcellulose) (HPC)) of the same compound?
A: The T/C was 87 % of control [survivor count not shown].

Q: And the T/C (dose: 0.78 mg/kg/injection, schedule: Q01DX009 (ip), vehicle: Klucel (hydroxypropylcellulose) (HPC))?
A: The T/C was 157 % of control [survivor count not shown].

Q: What about the T/C (dose: 1.5 mg/kg/injection, schedule: Q01DX009 (ip), vehicle: Klucel (hydroxypropylcellulose) (HPC)) of the same compound?
A: The T/C was 101 % of control [survivor count not shown].

Q: What about the T/C (dose: 1.56 mg/kg/injection, schedule: Q01DX009 (ip), vehicle: Klucel (hydroxypropylcellulose) (HPC)) of the same compound?
A: The T/C was 175 % of control [survivor count not shown].

Q: And the T/C (dose: 3.0 mg/kg/injection, schedule: Q01DX009 (ip), vehicle: Klucel (hydroxypropylcellulose) (HPC))?
A: The T/C was 88 % of control [survivor count not shown].

Q: What about the T/C (dose: 3.12 mg/kg/injection, schedule: Q01DX009 (ip), vehicle: Klucel (hydroxypropylcellulose) (HPC)) of the same compound?
A: The T/C was 175 % of control [survivor count not shown].

Q: What about the T/C (dose: 6.0 mg/kg/injection, schedule: Q01DX009 (ip), vehicle: Klucel (hydroxypropylcellulose) (HPC)) of the same compound?
A: Its T/C is 107 % of control [survivor count not shown].

Q: And the T/C [1]?
A: The T/C was 210 % of control [survivor count not shown].

Q: How did the T/C (dose: 1.56 mg/kg/injection, schedule: Q04DX003 (ip), vehicle: saline with Tween-80) turn out when O=C(O)C(Cc1ccccc1)N(CCCl)CCCl (configuration not stated) was run?
A: Its T/C is 140 % of control [survivor count not shown].

Q: What about the T/C (dose: 3.13 mg/kg/injection, schedule: Q04DX003 (ip), vehicle: saline with Tween-80) of the same compound?
A: Its T/C is 154 % of control [survivor count not shown].

Q: What about the T/C (dose: 4.0 mg/kg/injection, schedule: Q04DX003 (ip), vehicle: saline with Tween-80) of the same compound?
A: The T/C was 158 % of control [survivor count not shown].

Q: And the T/C (dose: 6.0 mg/kg/injection, schedule: Q04DX003 (ip), vehicle: saline with Tween-80)?
A: Its T/C is 166 % of control [survivor count not shown].

Q: And the T/C (dose: 6.25 mg/kg/injection, schedule: Q04DX003 (ip), vehicle: saline with Tween-80)?
A: Its T/C is 209 % of control [survivor count not shown].

Q: What about the T/C (dose: 9.0 mg/kg/injection, schedule: Q04DX003 (ip), vehicle: saline with Tween-80) of the same compound?
A: Its T/C is 162 % of control [survivor count not shown].

Q: What does the source list for COc1c(C)cc(N(CCCl)CCCl)c2ccccc12?
A: T/C (dose: 3.6 mg/kg/injection, schedule: Q04DX003 (ip), vehicle: Klucel (hydroxypropylcellulose) (HPC)): 100 % of control [survivor count not shown]; T/C (dose: 5.4 mg/kg/injection, schedule: Q04DX003 (ip), vehicle: Klucel (hydroxypropylcellulose) (HPC)): 154 % of control [survivor count not shown]; T/C [1]: 190 % of control [survivor count not shown]; T/C (dose: 12.5 mg/kg/injection, schedule: Q01DX009 (ip), vehicle: Klucel (hydroxypropylcellulose) (HPC)): 195 % of control [survivor count not shown]; T/C (dose: 25.0 mg/kg/injection, schedule: Q01DX009 (ip), vehicle: Klucel (hydroxypropylcellulose) (HPC)): 142 % of control [survivor count not shown]; T/C (dose: 50.0 mg/kg/injection, schedule: Q01DX009 (ip), vehicle: Klucel (hydroxypropylcellulose) (HPC)): 110 % of control [survivor count not shown]; T/C (dose: 65.0 mg/kg/injection, schedule: Q04DX003 (ip), vehicle: Klucel (hydroxypropylcellulose) (HPC)): 218 % of control [survivor count not shown]; T/C (dose: 100.0 mg/kg/injection, schedule: Q04DX003 (ip), vehicle: Klucel (hydroxypropylcellulose) (HPC)): 215 % of control [survivor count not shown]; T/C (dose: 132.0 mg/kg/injection, schedule: Q04DX003 (ip), vehicle: Klucel (hydroxypropylcellulose) (HPC)): 95 [survivor count not shown] and 125 % of control [survivor count not shown]; T/C (dose: 200.0 mg/kg/injection, schedule: Q04DX003 (ip), vehicle: Klucel (hydroxypropylcellulose) (HPC)): 110 [survivor count not shown] and 300 % of control [survivor count not shown]

Q: Which T/C (dose: 0.27 mg/kg/injection, schedule: Q01DX009 (ip), vehicle: saline) does the source give for Nc1ncnc2c1ncn2CCN(CCCl)CCCl here?
A: Its T/C is 144 % of control [survivor count not shown].

Q: What about the T/C (dose: 0.4 mg/kg/injection, schedule: Q01DX009 (ip), vehicle: saline) of the same compound?
A: Its T/C is 126 % of control [survivor count not shown].

Q: And the T/C (dose: 0.88 mg/kg/injection, schedule: Q04DX003 (ip), vehicle: saline)?
A: The T/C was 122 % of control [survivor count not shown].

Q: What about the T/C (dose: 1.32 mg/kg/injection, schedule: Q04DX003 (ip), vehicle: saline) of the same compound?
A: Its T/C is 145 % of control [survivor count not shown].

Q: And the T/C (dose: 1.88 mg/kg/injection, schedule: Q01DX009 (ip), vehicle: saline)?
A: The T/C was 181 % of control [survivor count not shown].

Q: What about the T/C (dose: 2.0 mg/kg/injection, schedule: Q01DX009 (ip), vehicle: saline) of the same compound?
A: The T/C was 199 % of control [survivor count not shown].

Q: What about the T/C (dose: 2.0 mg/kg/injection, schedule: Q04DX003 (ip), vehicle: saline) of the same compound?
A: Its T/C is 145 % of control [survivor count not shown].

Q: What about the T/C (dose: 3.0 mg/kg/injection, schedule: Q01DX009 (ip), vehicle: saline) of the same compound?
A: Its T/C is 208 % of control [survivor count not shown].

Q: And the T/C (dose: 3.0 mg/kg/injection, schedule: Q04DX003 (ip), vehicle: saline)?
A: The T/C was 154 % of control [survivor count not shown].

Q: What about the T/C (dose: 3.3 mg/kg/injection, schedule: Q01DX009 (ip), vehicle: saline) of the same compound?
A: Its T/C is 209 % of control [survivor count not shown].

Q: What about the T/C (dose: 3.75 mg/kg/injection, schedule: Q01DX009 (ip), vehicle: saline) of the same compound?
A: The T/C was 231 % of control [survivor count not shown].

Q: What about the T/C (dose: 4.5 mg/kg/injection, schedule: Q01DX009 (ip), vehicle: saline) of the same compound?
A: The T/C was 225 % of control [survivor count not shown].

Q: And the T/C (dose: 5.0 mg/kg/injection, schedule: Q01DX009 (ip), vehicle: saline)?
A: The T/C was 250 % of control [survivor count not shown].

Q: And the T/C (dose: 7.5 mg/kg/injection, schedule: Q01DX009 (ip), vehicle: saline)?
A: The T/C was 213 [survivor count not shown] and 281 % of control [survivor count not shown].
